Reference: PMC12463022

By UniProt entry, the sequences of proteins in these tests, tags left out.
UniProt P02763: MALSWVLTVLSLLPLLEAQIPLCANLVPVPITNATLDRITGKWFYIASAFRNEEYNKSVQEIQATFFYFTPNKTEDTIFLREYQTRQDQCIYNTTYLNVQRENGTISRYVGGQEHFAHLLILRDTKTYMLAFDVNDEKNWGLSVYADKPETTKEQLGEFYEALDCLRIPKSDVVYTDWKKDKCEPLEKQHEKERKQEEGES
UniProt P08670: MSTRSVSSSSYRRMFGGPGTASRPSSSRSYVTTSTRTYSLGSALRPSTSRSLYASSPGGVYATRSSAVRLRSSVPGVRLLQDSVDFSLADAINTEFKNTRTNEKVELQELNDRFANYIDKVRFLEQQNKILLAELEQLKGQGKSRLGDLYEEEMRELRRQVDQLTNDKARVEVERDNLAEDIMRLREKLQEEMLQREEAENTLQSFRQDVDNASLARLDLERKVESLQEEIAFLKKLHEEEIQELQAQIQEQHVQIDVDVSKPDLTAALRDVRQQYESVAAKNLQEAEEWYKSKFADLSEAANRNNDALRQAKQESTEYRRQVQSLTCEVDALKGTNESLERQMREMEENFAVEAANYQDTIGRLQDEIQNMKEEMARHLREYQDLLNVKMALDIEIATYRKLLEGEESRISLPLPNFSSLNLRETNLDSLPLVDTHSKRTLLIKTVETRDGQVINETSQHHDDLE

Target: orosomucoid 1 (ORM1)–Flag (human) (UniProt P02763)
Assay: affinity purification with mass spectrometry; coIP from lysate of cells transfected with ORM1-Flag for 24 h (cell line not stated), primary antibody overnight at 4 °C, Protein G-Agarose; SDS-PAGE, coomassie brilliant blue; band around 50 kDa that differed between IgG and IP lane cut, trypsin, LC-MS/MS

binding: binds
Substance: vimentin (VIM) (from UniProt P08670 1-466)

These are yes or no findings as the source states them, for the method shown. Binding seen in cells or lysates may run through a third protein. Here binding means that the protein was enriched with, or labelled near, the bait; the list need not be complete.
